Data taken from patent US20250197496A1.
Results are given in words; binding and its absence hold for the method and conditions named.

Protein sequences, listed by entry. Tags and fused reporters are not part of them. Lines headed by an entry give the natural chain unless they say otherwise; changes in a name come on top.
UniProt P07766: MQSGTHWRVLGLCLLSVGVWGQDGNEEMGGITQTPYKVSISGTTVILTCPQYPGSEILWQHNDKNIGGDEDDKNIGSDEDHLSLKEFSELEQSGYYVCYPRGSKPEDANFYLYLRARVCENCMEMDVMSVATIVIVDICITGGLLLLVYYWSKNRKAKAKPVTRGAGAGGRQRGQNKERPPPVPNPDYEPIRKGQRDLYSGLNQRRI

How the values were obtained:
[1] = biological target: human CD3 epsilon (recombinant, plate-coated) (human) (UniProt P07766); assay: sandwich ELISA, plate coated with CD3ε, luminescence (RLU)
[2] = biological target: T1, Human ULBP2 (recombinant) (human) (UniProt Q9BZM5); assay: sandwich ELISA, plate coated with recombinant ULBP2, luminescence (RLU)
T1 sequence: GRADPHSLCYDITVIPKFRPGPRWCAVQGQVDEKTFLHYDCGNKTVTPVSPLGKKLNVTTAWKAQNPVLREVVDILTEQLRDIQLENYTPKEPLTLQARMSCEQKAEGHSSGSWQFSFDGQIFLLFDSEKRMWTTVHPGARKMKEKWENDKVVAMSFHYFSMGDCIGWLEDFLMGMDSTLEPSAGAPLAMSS

B1: iso-control EIP0120 (antibody, human IgG1, kappa, V domains shown)
VH: QVQLVQSGAEVKKPGASVKVSCQASGYRFSNFVIHWVRQAPGQRFEWMGWINPYNGNKEFSAKFQDRVTFTADTSANTAYMELRSLRSADTAVYYCARVGPYSWDDSPQDNYYMDVWGKGTTVIVSS
VL: EIVLTQSPGTLSLSPGERATFSCRSSHSIRSRRVAWYQHKPGQAPRLVIHGVSNRASGISDRFSGSGSGTDFTLTITRVEPEDFALYYCQVYGASSYTFGQGTKLERKR
- binding [1]: no binding (tested: 10000 ng/mL)
- binding [2]: no binding (tested: 10 µg/mL)
